In the assay the target is T1, Flag-LSH (lymphoid-specific helicase), expressed in HCT116 cells (human (cDNA from GES-1 cells)) (UniProt Q9NRZ9).
T1 sequence: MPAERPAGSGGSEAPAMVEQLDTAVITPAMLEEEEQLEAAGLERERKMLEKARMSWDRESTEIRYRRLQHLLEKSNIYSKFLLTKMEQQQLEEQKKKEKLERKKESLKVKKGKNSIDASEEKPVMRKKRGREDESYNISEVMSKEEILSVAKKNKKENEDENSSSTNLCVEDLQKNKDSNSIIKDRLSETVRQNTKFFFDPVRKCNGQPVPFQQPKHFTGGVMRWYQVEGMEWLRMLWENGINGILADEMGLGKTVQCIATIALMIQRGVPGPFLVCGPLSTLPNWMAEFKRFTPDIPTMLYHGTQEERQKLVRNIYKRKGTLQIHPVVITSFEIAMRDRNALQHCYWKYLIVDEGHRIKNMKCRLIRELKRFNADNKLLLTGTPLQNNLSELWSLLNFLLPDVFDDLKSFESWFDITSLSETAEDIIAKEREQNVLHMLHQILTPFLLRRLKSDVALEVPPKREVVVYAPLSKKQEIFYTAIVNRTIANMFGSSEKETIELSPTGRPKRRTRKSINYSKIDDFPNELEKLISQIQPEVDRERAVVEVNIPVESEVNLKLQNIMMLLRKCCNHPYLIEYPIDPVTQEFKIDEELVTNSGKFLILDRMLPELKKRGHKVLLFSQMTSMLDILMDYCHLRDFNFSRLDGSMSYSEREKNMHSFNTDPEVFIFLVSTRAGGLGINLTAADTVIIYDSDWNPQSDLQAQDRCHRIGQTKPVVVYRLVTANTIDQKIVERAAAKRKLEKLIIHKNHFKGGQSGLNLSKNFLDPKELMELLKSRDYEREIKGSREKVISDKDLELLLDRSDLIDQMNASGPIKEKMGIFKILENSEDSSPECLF
The experiment in a line: affinity purification with mass spectrometry; Flag-LSH immunoprecipitated from HCT116 cells; proteins separated by SDS-PAGE, Coomassie-stained bands cut out and analysed by LC-MS/MS (NanoLC-Q EXACTIVE).

Chains of the proteins cited; added tags and fusions are not shown.
UniProt P16403: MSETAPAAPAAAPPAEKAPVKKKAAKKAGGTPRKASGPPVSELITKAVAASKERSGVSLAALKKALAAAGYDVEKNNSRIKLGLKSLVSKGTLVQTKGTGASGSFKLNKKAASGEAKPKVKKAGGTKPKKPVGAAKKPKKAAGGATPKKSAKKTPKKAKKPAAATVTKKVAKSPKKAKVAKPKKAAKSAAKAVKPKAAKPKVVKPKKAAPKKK
UniProt P51784: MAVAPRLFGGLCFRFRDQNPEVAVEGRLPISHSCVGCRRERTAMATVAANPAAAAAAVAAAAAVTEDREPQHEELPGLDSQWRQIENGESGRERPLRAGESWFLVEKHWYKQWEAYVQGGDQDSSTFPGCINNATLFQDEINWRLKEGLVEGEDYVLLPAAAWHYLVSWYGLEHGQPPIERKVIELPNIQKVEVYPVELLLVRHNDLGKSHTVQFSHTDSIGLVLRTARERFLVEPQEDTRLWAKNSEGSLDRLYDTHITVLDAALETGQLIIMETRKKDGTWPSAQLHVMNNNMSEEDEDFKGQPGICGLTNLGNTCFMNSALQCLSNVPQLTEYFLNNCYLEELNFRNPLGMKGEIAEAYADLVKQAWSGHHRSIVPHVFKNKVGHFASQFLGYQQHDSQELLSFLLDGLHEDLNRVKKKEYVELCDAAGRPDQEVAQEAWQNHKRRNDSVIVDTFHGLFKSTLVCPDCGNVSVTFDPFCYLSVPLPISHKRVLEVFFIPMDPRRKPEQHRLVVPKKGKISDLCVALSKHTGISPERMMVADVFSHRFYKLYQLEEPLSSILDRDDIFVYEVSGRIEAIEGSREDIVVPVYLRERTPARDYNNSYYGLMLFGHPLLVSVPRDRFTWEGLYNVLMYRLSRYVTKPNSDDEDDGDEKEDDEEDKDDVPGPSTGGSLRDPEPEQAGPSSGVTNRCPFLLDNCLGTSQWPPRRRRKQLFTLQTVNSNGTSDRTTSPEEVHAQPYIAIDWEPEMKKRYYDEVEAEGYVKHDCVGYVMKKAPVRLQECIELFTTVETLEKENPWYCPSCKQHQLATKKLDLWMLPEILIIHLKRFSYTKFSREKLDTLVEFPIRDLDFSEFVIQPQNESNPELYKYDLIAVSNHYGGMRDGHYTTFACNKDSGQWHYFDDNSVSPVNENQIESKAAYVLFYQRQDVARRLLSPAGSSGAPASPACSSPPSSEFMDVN

Results are given in words; binding and its absence hold for the method and conditions named. Binding seen in cells or lysates may run through a third protein. A yes stands for co-enrichment or nearness to the bait. Other partners may have been found. Where a sequence is shown, tags or fusion partners need not be part of it.

Take “histone cluster 1 H1 family member c (HIST1H1C), endogenous in HCT116 cells (from UniProt P16403 1-213)”: the binding result is on record as “binds”.

Take “ubiquitin-specific protease 11 (USP11), endogenous in HCT116 cells (from UniProt P51784 1-963) (enzyme)”: the binding entry is on record as “binds”.

The record behind these values is publication PMC10326026.
